Data from patent publication US20050180982A1, “Cadherin-11 expression, an assay and treatment for cellular invasiveness” (THE UNIVERSITY OF BRITISH COLUMBIA, priority 1998, published 2005).
For at least one compound, name, drawing or mass did not settle the structure.

How the values were obtained:
[1] = test system: cad-11 protein in endometrial stromal cells; test: Western blot of cad-11 protein in cultured endometrial stromal cells treated with gonadal steroids; assay type: cell-based, human; conditions: P4, E2 30 nM, alone or together, increase seen at 2 days of culture
Protocol: (§1) Endometrial tissue biopsies (n=6) were obtained from women of reproductive age during the mid-secretory phase of the menstrual cycle. All patients had normal menstrual cycles and had not received hormones for at least three months prior to the collection of tissue. The stage of the menstrual cycle was determined by the last menstrual period and confirmed by histological evaluation.
The endometrial stromal cells were separated from the glandular epithelium by enzymatic digestion and mechanical dissociation. The endometrial biopsy specimens were minced and subjected to 0.1% colagenase (type 1A. Sigma Chemical Co., St. Louis. MO) and 0.1% hyaluronidase (type I-S, Sigma Chemical Co.) digestion in a shaking water bath at 37° C. for 1 hour. The cell digest was then passed through a nylon sieve (38 m). The isolated glands were retained on the sieve and the eluate containing the stromal cells collected in a 50 ml tube. […] The purity of the cell cultures was determined by immunocytochemical staining for vimentin, cytokeratin, muscle actin, and […]. […]
(§2) The results are presented as the mean relative absorbance (+SE) for three independent experiments. Statistical differences between time points and treatments were assessed by the analysis of variance (ANOVA). […] Significant differences between the means were determined using the least significant test.

[2] = test system: cad-11 mRNA in endometrial stromal cells; test: Northern blot of cad-11 mRNA in cultured endometrial stromal cells treated with gonadal steroids; assay type: cell-based, human; conditions: P4 1 mM, E2 30 nM, alone or together, increase seen after 2 days of culture, studied 0-12 days
Protocol: as §1
The endometrial stromal cells were separated from the glandular epithelium by enzymatic digestion and mechanical dissociation. […] The purity of the cell cultures was determined by immunocytochemical staining for vimentin, cytokeratin, muscle actin, and […]. […]
The Northern blots were hybridized with radiolabelled cDNA probes specific for human cad-11 according to the methods of MacCalman et al. (1992) Developmental Dynamics 195:127-132. […] The absorbance values obtained for cad-11 mRNA transcripts were normalized relative to the 18S rRNA absorbance value.
as §2

C[C@]12CC[C@@H]3c4ccc(O)cc4CC[C@H]3[C@@H]1CC[C@@H]2O [E2, 17-estradiol]
cad-11 protein expression [1]: No significant increase
stromal cad-11 mRNA levels [2]: did not significantly increase
